These are yes or no findings as the source states them, for the method shown. Binding seen in cells or lysates may run through a third protein. A yes stands for co-enrichment or nearness to the bait. Other partners may have been found. For some assays here: No binding means not detected with the bait.
What was measured:
[1] = target: Glucocorticoid Receptor (mouse (endogenous in liver)) (UniProt P06537); assay: condition: only in E47ΔLKO livers (E47 deleted in hepatocytes); affinity purification with mass spectrometry; ChIP-MS as for the controls, but in livers of Dex-injected Alb-Cre x E47 flox/flox (E47ΔLKO) mice, which lack E47 in hepatocytes; IP with rabbit anti-GR against rabbit IgG; three replicates
[2] = target: Glucocorticoid Receptor (mouse (endogenous in liver)) (UniProt P06537); assay: affinity purification with mass spectrometry; ChIP-MS: formaldehyde cross-linked, sonicated chromatin from livers of Dex-injected control mice; IP with rabbit anti-GR against rabbit IgG, protein G Dynabeads, washes up to 500 mM NaCl, 1% Triton; on-bead digest; three replicates

Amino acid sequences for entries named in this document (tags omitted).
UniProt P06537: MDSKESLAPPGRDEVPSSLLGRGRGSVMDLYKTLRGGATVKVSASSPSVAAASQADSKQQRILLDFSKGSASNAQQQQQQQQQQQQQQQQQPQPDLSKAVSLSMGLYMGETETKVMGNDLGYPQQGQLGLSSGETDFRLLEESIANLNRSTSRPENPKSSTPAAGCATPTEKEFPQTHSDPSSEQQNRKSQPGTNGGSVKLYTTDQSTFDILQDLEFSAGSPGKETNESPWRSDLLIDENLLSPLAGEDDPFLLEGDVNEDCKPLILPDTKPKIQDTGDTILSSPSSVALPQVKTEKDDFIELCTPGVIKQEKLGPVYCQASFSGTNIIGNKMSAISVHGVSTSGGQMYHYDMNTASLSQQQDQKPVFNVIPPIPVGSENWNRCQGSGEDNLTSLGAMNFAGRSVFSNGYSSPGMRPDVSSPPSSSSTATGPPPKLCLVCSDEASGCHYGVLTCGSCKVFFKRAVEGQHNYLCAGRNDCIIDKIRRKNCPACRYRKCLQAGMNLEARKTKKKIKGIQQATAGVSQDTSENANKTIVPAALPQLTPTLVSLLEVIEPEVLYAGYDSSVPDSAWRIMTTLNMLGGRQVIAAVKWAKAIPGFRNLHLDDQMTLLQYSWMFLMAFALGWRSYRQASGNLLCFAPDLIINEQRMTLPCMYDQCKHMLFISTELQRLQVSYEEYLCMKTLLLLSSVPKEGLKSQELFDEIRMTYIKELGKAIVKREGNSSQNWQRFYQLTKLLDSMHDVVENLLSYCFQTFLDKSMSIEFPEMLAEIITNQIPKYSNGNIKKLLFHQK

| Binder | binding [1] | binding [2] |
| --- | --- | --- |
| Epithelial splicing regulatory protein 2 Esrp2 (protein, UniProt Q8K0G8 1-717) MTPPPPPPPPPGPDPAVDSATDPCPEPQSLVVLFGATAGALGPDLGSDETDLILLVWQVVEPRSRQVGTLHKSLVRAEAAALSPQCREASGLSADSLARAESLDKVLQQFSQLVSGDVALLGGGPYVLCTDGQQLLRQVLHPEASRKNLVLPDTFFSFYDLRREFHMQHPSTCSARDLTVGTMAQDLGLETDATEDDFGVWEVKTMVAVILHLLEGSNGQLFSKPEVVKQKYETGPCSKADVVDNETVVRARGLPWQSSDQDVARFFKGLNIARGGVALCLNAQGRRNGEALIRFVDSEQRDLALQRHKHHMGVRYIEVYKATGEEFVKIAGGTSLEVARFLSREDQVILRLRGLPFSAGPTDVLGFLGPECPVTGGADGLLFVRHPDGRPTGDAFALFACEELAQAALRRHKGMLGKRYIELFRSTAAEVQQVLNRYAASPLLPTLTAPLLPIPFPLAGGTGRDCVRLRGLPYTATIEDILSFLGEAAADIRPHGVHMVLNQQGRPSGDAFIQMMSVERALAAAQRCHKKMMKERYVEVVPCSTEEMSRVLMGGSLSRSGLSPPPCKLPCLSPPTYATFQATPALIPTETTALYPSSALLPAARVPAAATPLAYYPGPATQLYMNYTAYYPSPPVSPTTVGYLTTPPTALASTPTTMLSQPGALVRMQGVPYTAGMKDLLSVFQAYQLAPDDYTTLMPVGDPPRTVLQAPKEWVCL | no binding | binds |
| Heterogeneous nuclear ribonucleoprotein L Hnrnpl (protein, UniProt Q8R081 1-586) MSRRLLPRAEKRRRRLEQRQQPDEQLRRAGAMVKMAAAGGGGGGGRYYGGGNEGGRAPKRLKTENAGDQHGGGGGGGSGAAGGGGGENYDDPHKTPASPVVHIRGLIDGVVEADLVEALQEFGPISYVVVMPKKRQALVEFEDVLGACNAVNYAADNQIYIAGHPAFVNYSTSQKISRPGDSDDSRSVNSVLLFTILNPIYSITTDVLYTICNPCGPVQRIVIFRKNGVQAMVEFDSVQSAQRAKASLNGADIYSGCCTLKIEYAKPTRLNVFKNDQDTWDYTNPNLSGQGDPGSNPNKRQRQPPLLGDHPAEYGGPHGGYHSHYHDEGYGPPPPHYEGRRMGPPVGGHRRGPSRYGPQYGHPPPPPPPPDYGPHADSPVLMVYGLDQSKMNCDRVFNVFCLYGNVEKVKFMKSKPGAAMVEMADGYAVDRAITHLNNNFMFGQKMNVCVSKQPAIMPGQSYGLEDGSCSYKDFSESRNNRFSTPEQAAKNRIQHPSNVLHFFNAPLEVTEENFFEICDELGVKRPTSVKVFSGKSERSSSGLLEWDSKSDALETLGFLNHYQMKNPNGPYPYTLKLCFSTAQHAS | no binding | binds |
| HNF4α (protein, UniProt P49698 1-474) MRLSKTLAGMDMADYSAALDPAYTTLEFENVQVLTMGNDTSPSEGANLNSSNSLGVSALCAICGDRATGKHYGASSCDGCKGFFRRSVRKNHMYSCRFSRQCVVDKDKRNQCRYCRLKKCFRAGMKKEAVQNERDRISTRRSSYEDSSLPSINALLQAEVLSQQITSPISGINGDIRAKKIANITDVCESMKEQLLVLVEWAKYIPAFCELLLDDQVALLRAHAGEHLLLGATKRSMVFKDVLLLGNDYIVPRHCPELAEMSRVSIRILDELVLPFQELQIDDNEYACLKAIIFFDPDAKGLSDPGKIKRLRSQVQVSLEDYINDRQYDSRGRFGELLLLLPTLQSITWQMIEQIQFIKLFGMAKIDNLLQEMLLGGSASDAPHTHHPLHPHLMQEHMGTNVIVANTMPSHLSNGQMCEWPRPRGQAATPETPQPSPPSGSGSESYKLLPGAITTIVKPPSAIPQPTITKQEAI | – | binds |

Reference: paper PMC6338785
